This passage reports binding results from article PMC5662751.

Protein sequences, listed by entry. Tags and fused reporters are not part of them.
UniProt Q8CJG0: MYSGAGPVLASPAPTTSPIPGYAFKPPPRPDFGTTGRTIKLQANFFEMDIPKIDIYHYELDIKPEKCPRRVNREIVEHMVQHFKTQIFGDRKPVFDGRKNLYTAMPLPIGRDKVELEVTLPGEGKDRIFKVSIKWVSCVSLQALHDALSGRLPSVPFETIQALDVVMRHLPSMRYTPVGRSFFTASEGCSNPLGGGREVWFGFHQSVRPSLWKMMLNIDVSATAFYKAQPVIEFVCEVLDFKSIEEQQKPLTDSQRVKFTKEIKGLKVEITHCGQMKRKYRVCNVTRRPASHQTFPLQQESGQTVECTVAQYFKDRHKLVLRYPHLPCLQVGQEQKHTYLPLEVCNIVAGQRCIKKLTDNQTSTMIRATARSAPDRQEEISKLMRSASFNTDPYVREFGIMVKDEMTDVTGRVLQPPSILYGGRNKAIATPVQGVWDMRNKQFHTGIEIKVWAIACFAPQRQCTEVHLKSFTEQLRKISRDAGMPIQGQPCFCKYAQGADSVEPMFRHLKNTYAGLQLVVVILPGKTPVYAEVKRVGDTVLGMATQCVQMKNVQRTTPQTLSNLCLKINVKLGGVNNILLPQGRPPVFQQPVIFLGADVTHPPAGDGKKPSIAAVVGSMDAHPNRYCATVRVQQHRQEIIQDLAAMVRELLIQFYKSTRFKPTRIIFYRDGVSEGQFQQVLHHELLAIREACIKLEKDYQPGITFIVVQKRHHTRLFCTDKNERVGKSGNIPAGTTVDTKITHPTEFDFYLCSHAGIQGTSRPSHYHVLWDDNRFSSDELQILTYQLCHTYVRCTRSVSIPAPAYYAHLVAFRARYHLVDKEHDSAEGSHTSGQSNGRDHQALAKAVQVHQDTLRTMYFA
UniProt Q6ZQ08: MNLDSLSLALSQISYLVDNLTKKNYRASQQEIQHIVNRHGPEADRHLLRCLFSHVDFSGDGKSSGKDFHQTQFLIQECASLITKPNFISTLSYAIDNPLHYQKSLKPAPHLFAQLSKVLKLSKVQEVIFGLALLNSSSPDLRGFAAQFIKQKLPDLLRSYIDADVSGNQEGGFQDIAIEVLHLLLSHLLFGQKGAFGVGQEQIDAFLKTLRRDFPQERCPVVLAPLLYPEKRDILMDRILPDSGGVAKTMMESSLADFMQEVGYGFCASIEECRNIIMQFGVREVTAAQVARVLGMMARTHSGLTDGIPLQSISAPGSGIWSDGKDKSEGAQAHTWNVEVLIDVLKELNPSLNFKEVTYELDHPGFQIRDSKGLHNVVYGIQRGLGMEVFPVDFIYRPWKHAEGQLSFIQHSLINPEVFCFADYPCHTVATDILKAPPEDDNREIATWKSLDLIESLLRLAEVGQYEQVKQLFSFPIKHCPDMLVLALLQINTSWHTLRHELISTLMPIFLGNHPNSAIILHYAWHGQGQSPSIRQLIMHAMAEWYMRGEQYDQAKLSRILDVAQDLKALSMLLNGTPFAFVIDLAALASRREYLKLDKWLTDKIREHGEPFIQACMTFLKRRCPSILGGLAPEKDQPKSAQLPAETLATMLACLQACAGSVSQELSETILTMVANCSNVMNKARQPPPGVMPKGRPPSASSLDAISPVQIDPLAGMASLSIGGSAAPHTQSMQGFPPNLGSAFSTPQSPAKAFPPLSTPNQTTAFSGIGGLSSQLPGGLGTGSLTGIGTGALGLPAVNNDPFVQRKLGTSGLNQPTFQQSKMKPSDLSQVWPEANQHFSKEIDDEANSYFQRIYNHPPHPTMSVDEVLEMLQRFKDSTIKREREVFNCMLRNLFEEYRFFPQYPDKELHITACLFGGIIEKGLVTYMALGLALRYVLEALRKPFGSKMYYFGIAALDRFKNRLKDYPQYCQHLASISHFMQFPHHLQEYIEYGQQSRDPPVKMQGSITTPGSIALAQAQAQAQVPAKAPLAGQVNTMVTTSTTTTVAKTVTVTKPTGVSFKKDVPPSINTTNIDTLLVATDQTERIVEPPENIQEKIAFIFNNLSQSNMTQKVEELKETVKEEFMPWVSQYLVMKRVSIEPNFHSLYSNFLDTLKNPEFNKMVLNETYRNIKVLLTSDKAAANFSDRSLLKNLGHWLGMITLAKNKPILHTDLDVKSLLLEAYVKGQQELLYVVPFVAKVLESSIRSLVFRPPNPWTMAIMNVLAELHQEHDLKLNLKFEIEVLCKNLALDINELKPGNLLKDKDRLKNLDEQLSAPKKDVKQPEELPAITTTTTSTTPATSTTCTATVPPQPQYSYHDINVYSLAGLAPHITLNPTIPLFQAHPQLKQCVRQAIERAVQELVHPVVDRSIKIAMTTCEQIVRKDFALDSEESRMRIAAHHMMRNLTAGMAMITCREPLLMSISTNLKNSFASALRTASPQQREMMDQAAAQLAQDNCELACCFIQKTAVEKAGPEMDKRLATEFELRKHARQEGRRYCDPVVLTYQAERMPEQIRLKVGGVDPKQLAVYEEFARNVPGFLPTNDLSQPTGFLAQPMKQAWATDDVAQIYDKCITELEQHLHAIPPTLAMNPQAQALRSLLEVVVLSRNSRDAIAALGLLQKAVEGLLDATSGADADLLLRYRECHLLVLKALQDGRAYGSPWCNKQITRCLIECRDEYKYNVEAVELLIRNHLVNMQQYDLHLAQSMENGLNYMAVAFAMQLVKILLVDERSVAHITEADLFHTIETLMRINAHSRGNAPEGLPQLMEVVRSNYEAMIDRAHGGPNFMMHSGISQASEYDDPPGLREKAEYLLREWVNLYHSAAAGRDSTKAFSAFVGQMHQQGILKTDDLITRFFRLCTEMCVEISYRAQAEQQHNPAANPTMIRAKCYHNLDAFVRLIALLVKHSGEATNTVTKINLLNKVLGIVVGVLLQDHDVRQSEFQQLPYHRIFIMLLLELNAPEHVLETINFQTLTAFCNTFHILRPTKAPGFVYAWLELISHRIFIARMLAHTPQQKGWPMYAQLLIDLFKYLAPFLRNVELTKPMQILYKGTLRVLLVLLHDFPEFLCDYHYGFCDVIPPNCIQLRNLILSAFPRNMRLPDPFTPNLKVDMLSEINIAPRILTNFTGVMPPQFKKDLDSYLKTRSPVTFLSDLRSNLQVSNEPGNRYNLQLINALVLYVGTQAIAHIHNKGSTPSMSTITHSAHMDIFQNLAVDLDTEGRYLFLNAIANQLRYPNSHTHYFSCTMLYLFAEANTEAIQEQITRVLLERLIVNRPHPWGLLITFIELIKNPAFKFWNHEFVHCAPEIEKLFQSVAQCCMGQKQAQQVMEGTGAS

These are yes or no findings as the source states them, for the method shown. In cells and extracts the contact can be indirect. Here binding means that the protein was enriched with, or labelled near, the bait; the list need not be complete.

The assay concerns the target Argonaute 2 (Ago2), mouse, endogenous (mouse (endogenous in RAW 264.7 and P19)) (UniProt Q8CJG0). The experiment in a line: affinity purification with mass spectrometry; IP of endogenous Ago2 (anti-Ago2) from mouse RAW 264.7 cell extracts, undigested or totally digested with RNase A (10 mg/ml, 30 min, room temperature); label-free quantitative LC-MS/MS; IgG IP as control.

Consider “CCR4-NOT Transcription Complex Subunit 1 (CNOT1), mouse, endogenous (from UniProt Q6ZQ08 1-2375)”, for which the binding entry is “binds”.
